Where “and” joins values, the source holds several entries; their conditions need not be identical. Equal values may be shown once. This continues a long series; more values of the same kind are listed elsewhere.
Molecular target: CDK7 (Homo sapiens, UniProt P50613)
Experiment: Intracellular residence time by cellular washout, CDK7
Format: binding
Conditions: Panel B
Protocol: However, residence times for this and many of the other CDKi’s in our panel have not been reported in cell-free or cellular contexts. […] This condition was selected to ensure adequate target occupancy prior to compound washout. Residence time was then evaluated by a rapid compound washout procedure, followed by addition of energy transfer probe 1. Under these conditions, the rate of the energy transfer signal increase serves as a direct proxy for the loss of the target-CDKi interaction[18],[56],[57].
Residence time was qualitatively assessed via a cellular washout approach, where delayed energy probe association is used as an indirect measurement for the durability of target/compound engagement. […] After 2 h of incubation at 37 °C, the medium was aspirated from the cells and replaced with fresh OptiMEM containing NanoBRET NanoGlo Substrate and Extracellular NanoLuc Inhibitor. […] Occupancy values were plotted as a function of time.
Supplementary Figure 22. […] Residence […]
time was qualitatively assessed by cellular washout as described in the method details and compared to association of energy transfer probe in cells treated with DMSO vehicle. […]
engagement at CDK6 and kinetic selectivity for CDK6 compared to CDK2 and CDK7. BRET ratios were normalized between the maximum BRET value vs BRET value in the absence of tracer. Kinetic traces and individual points are mean of 3 independent experiments ± S.E.M (n = 3). Source data are provided as a […]

The chains behind the UniProt entries cited, without tags or fusion partners. Where a name states a change or a piece, a line headed by the entry shows the natural chain unless it says otherwise.
UniProt P50613: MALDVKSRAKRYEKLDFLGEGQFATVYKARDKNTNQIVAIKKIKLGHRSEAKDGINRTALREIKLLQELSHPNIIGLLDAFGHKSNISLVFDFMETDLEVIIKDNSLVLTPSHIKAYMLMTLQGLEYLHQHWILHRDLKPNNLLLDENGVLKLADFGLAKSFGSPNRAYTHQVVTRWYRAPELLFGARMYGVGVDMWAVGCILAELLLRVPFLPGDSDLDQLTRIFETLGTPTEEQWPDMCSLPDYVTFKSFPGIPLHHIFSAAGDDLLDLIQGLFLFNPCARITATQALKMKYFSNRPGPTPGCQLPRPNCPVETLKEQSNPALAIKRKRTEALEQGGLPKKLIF

## COCCN1CCN(Cc2ccc(-c3n[nH]c4c3C(=O)c3c(NC(=O)NN5CCOCC5)cccc3-4)cc2)CC1 [RGB286638]
Time (Min) 41.9753
  CDK7: 75.102 and 91.6667
Time (Min) 44.9758
  CDK7: 90.2344 and 75.6463 and 98.2143
Time (Min) 47.9761
  CDK7: 90.5812 and 75.6463 and 95.5357
Time (Min) 50.9766
  CDK7: 90.3038 and 76.1905 and 93.006
Time (Min) 53.9771
  CDK7: 91.4135 and 76.0544 and 98.3631
Time (Min) 56.9772
  CDK7: 90.2344 and 75.9184 and 90.9226
Time (Min) 59.9777
  CDK7: 91.3442 and 77.1429 and 90.625
Time (Min) 62.9781
  CDK7: 89.6796 and 76.8708 and 95.5357
Time (Min) 65.9785
  CDK7: 88.7779 and 75.8503 and 90.1786
Time (Min) 68.9792
  CDK7: 90.0957 and 76.8708 and 93.4524
Time (Min) 71.9792
  CDK7: 91.2054 and 76.8708 and 93.6012
Time (Min) 74.9799
  CDK7: 90.1651 and 77.8912 and 92.4107
Time (Min) 77.9802
  CDK7: 89.8183 and 79.1837 and 90.625
Time (Min) 80.9806
  CDK7: 89.957 and 79.932 and 91.8155
Time (Min) 83.9813
  CDK7: 90.5119 and 81.6326 and 91.9643
Time (Min) 86.9817
  CDK7: 88.2231 and 82.517 and 86.0119
Time (Min) 89.9825
  CDK7: 88.2924 and 82.7211 and 83.1845
Time (Min) 92.9826
  CDK7: 88.9166 and 82.9932 and 85.7143
Time (Min) 95.9831
  CDK7: 87.4601 and 82.9932 and 87.3512
Time (Min) 98.9837
  CDK7: 87.5295 and 84.8299
Time (Min) 101.984
  CDK7: 87.3908 and 82.9932 and 87.2024
Time (Min) 104.984
  CDK7: 86.3504 and 84.8299 and 84.0774
Time (Min) 107.985
  CDK7: 87.6682 and 88.0272 and 80.9524
Time (Min) 110.985
  CDK7: 86.6972 and 87.0748 and 88.0952
Time (Min) 113.986
  CDK7: 87.3908 and 83.1973 and 78.869
Time (Min) 116.986
  CDK7: 86.2117 and 89.1157 and 90.7738
Time (Min) 119.987
  CDK7: 86.8359 and 88.5714 and 81.8452
Time (Min) 122.987
  CDK7: 85.0326 and 89.5238 and 78.869
Time (Min) 125.988
  CDK7: 85.31 and 89.932 and 87.5
Time (Min) 128.988
  CDK7: 86.3504 and 89.7959 and 85.2679
Time (Min) 131.988
  CDK7: 85.7262 and 89.5918 and 88.6905
Time (Min) 134.989
  CDK7: 85.1713 and 87.0748 and 78.125
Time (Min) 137.989
  CDK7: 86.4198 and 82.7211 and 86.1607
Time (Min) 140.99
  CDK7: 85.3794 and 77.2109 and 79.7619
Time (Min) 143.99
  CDK7: 84.6858 and 73.8095 and 70.3869
Time (Min) 146.99
  CDK7: 85.5181 and 74.0816 and 73.0655
Time (Min) 149.991
  CDK7: 84.6165 and 72.585 and 76.0417
Time (Min) 152.992
  CDK7: 73.6054
Time (Min) 152.992, listed as RGB-286638
  CDK7: 85.102 and 83.3333
Time (Min) 155.992
  CDK7: 83.8535 and 72.6531 and 74.4048
Time (Min) 158.992
  CDK7: 84.6858 and 72.3809 and 63.6905
Time (Min) 161.993
  CDK7: 82.7438 and 71.5646 and 91.0714
Time (Min) 164.993
  CDK7: 84.2003 and 72.9932 and 81.994
Time (Min) 167.994
  CDK7: 83.7842 and 72.449 and 84.5238
Time (Min) 170.994
  CDK7: 81.9809 and 72.7211 and 75.8929
Time (Min) 173.995
  CDK7: 83.2987 and 72.3809 and 89.4345
Time (Min) 176.995
  CDK7: 77.9762
Time (Min) 176.995, listed as RGB-286638
  CDK7: 84.4777 and 71.7007
Time (Min) 179.995
  CDK7: 83.4374 and 71.1565 and 72.0238
Time (Min) 182.996
  CDK7: 82.397 and 71.9048 and 80.9524
Time (Min) 185.996
  CDK7: 84.0616 and 71.9048 and 80.0595
Time (Min) 188.996
  CDK7: 82.397 and 70.8843 and 78.125
Time (Min) 191.996
  CDK7: 82.3276 and 72.3129 and 72.4702
Time (Min) 194.996
  CDK7: 83.9922 and 71.3605 and 63.8393
Time (Min) 197.996
  CDK7: 82.6744 and 71.0884 and 75.744
Time (Min) 200.996
  CDK7: 82.397 and 72.6531 and 83.631
Time (Min) 203.996
  CDK7: 84.8245 and 71.2245 and 73.2143
Time (Min) 206.996
  CDK7: 84.0616 and 72.7211 and 70.0893
Time (Min) 209.996
  CDK7: 82.2583 and 70.8163 and 74.5536
Time (Min) 212.996
  CDK7: 81.9115 and 72.2449 and 71.2798
Time (Min) 215.996
  CDK7: 80.9405 and 71.9048 and 68.006
Time (Min) 218.996
  CDK7: 81.9809 and 69.6599 and 69.6429
Time (Min) 221.996
  CDK7: 80.6631 and 69.7959 and 77.0833
Time (Min) 224.996
  CDK7: 80.3856 and 71.0204 and 77.6786
Time (Min) 227.996
  CDK7: 84.7552 and 72.585 and 64.881
Time (Min) 230.996
  CDK7: 80.6631 and 70.6122 and 72.1726
Time (Min) 233.996
  CDK7: 83.2293 and 71.2925 and 74.5536
